Data on twelve compounds can be found in PubChem BioAssay AID220 (DTP/NCI, 2004).

The list does not hold the whole screen: it is rich in T/C values a quarter to a half above the control, in often repeated tests (any T/C) and in doses without a T/C. Other doses and runs of a compound stand elsewhere. T/C gives the treated animals as a percentage of the vehicle group. Schedule codes are those of the source, read here as Q, the interval in days (D) or hours (H), X, the number of doses. Some entries were tested several times; the values are given in rising order. Some T/C values are negative: the treated tumours shrank. Some T/C values are followed by the survivors on the day toxicity was checked, most often the fifth; without a count, all were alive then. Some doses have a count of surviving animals in place of a T/C: the source holds a T/C of zero for them, seemingly a mark for toxic or unscored doses. Counts of survivors are from the toxicity check (mostly the fifth day) where no day follows; animals may have died later. Starred links: 1 amine or outer side, 2 acyl side, 3 side chain; linkers in the order of their positions; H or OH if unused. Positions of bridges follow the written chain, without caps; N, C: chain ends. Non-standard residues stand in square brackets, D forms with d. Residues, ends and D or L forms follow the SMILES beside them. Chains are numbered I, II in the order given. Actinocin(9to1) = Cc1c2oc3c(C)ccc(C(=O)[*:1])c3nc-2c(C(=O)[*:2])c(N)c1=O; aThr = C[C@H](O)[C@H](N)C(=O)O; NMeV = CN[C@H](C(=O)O)C(C)C; Sar = CNCC(=O)O

The assay concerns CD8F1 mice, subcutaneous mammary adenocarcinoma, T/C%. Nature of the assay: NCI In Vivo Anticancer Drug Screen. Data for tumor model Mammary Adenocarcinoma CD8F1 (subcutaneous) in CD8F1. The following applies: higher T/C = larger tumour. An outline of the steps:
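Antitumor activity is assessed in transplantable-tumor mice by comparing the treated group with a vehicle-treated control group. Survival or tumor size serves as the measure, reported as T divided by C.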

Where [1] appears, read: T/C endpoint: median tumor weight change, dose: 62.5 mg/kg/injection, schedule: Q01DX001 (ip), vehicle: saline with Tween-80.
Setting [2] is: T/C endpoint: median tumor weight change, dose: 125.0 mg/kg/injection, schedule: Q01DX001 (ip), vehicle: saline with Tween-80.
[3] abbreviates: T/C endpoint: median tumor weight change, dose: 250.0 mg/kg/injection, schedule: Q01DX001 (ip), vehicle: saline with Tween-80.

With `Cc1c2oc3c(C)ccc(C(=O)N[C@@H]4C(=O)N[C@H](C(C)C)C(=O)N5CCC[C@H]5C(=O)N(C)CC(=O)N(C)[C@@H](C(C)C)C(=O)O[C@H]4C)c3nc-2c(C(=O)N[C@@H]2C(=O)N[C@H](C(C)C)C(=O)N3CCC[C@H]3C(=O)N(C)CC(=O)N(C)[C@@H](C(C)C)C(=O)O[C@H]2C)c(N)c1=O` (I: [aThr][dV]P[Sar][NMeV] / II: [aThr][dV]P[Sar][NMeV]; ester I:1-I:C, II:1-II:C; linker I:N-II:N via Actinocin(9to1)), the T/C by setting is: (T/C endpoint: mean tumor weight, dose: 0.02 mg/kg/injection, schedule: Q01DX009 (ip), vehicle: saline + alcohol, evaluated on day 31) 125 % of control; (T/C endpoint: mean tumor weight, dose: 0.05 mg/kg/injection, schedule: Q07DX007 (ip), vehicle: saline, evaluated on day 50) 134 % of control; (T/C endpoint: median tumor weight (est.), dose: 0.03 mg/kg/injection, schedule: Q07DX005 (ip), vehicle: saline, evaluated on day 30) 146 % of control. The survivor count is 6 of 10 on day 30 (T/C endpoint: median tumor weight (est.), dose: 400.0 micrograms/kg/injection, schedule: Q07DX005 (ip), vehicle: saline); 0 of 10 on day 26 and 4 of 10 on day 28 (T/C endpoint: median tumor weight change, dose: 2.0 mg/kg/injection, schedule: Q01DX001 (ip), vehicle: saline).
With `CN(C)c1ccc(C(=C2C=CC(=[N+](C)C)C=C2)c2ccc(N(C)C)cc2)cc1` (tested in a mixture with another compound), the survivor count is recorded as 3 of 10 on day 28 (T/C endpoint: median tumor weight change, dose: 10.0 mg/kg/injection, schedule: Q01DX001 (ip), vehicle: saline with Tween-80); 0 of 10 on day 36 (T/C endpoint: median tumor weight change, dose: 12.5 mg/kg/injection, schedule: Q01DX001 (ip), vehicle: saline with Tween-80); 0 of 10 on day 28 (T/C endpoint: median tumor weight change, dose: 20.0 mg/kg/injection, schedule: Q01DX001 (ip), vehicle: saline with Tween-80); 0 of 10 on day 36 (T/C endpoint: median tumor weight change, dose: 25.0 mg/kg/injection, schedule: Q01DX001 (ip), vehicle: saline with Tween-80); 0 of 10 on day 28 (T/C endpoint: median tumor weight change, dose: 40.0 mg/kg/injection, schedule: Q01DX001 (ip), vehicle: saline with Tween-80); 0 of 10 on day 36 (T/C endpoint: median tumor weight change, dose: 50.0 mg/kg/injection, schedule: Q01DX001 (ip), vehicle: saline with Tween-80). Besides, the survivor count (T/C endpoint: median tumor weight change, dose: 100.0 mg/kg/injection, schedule: Q01DX001 (ip), vehicle: saline with Tween-80) is given as 0 of 10 on day 36.
`O=C1C(=O)c2cccnc2-c2ncccc21`: the survivor count (T/C endpoint: median tumor weight change, dose: 6.25 mg/kg/injection, schedule: Q01DX001 (ip), vehicle: Klucel (hydroxypropylcellulose) (HPC)) is 4 of 10 on day 33; the survivor count (T/C endpoint: median tumor weight change, dose: 12.5 mg/kg/injection, schedule: Q01DX001 (ip), vehicle: Klucel (hydroxypropylcellulose) (HPC)) is recorded as 4 of 10 on day 33; the survivor count (T/C endpoint: median tumor weight change, dose: 25.0 mg/kg/injection, schedule: Q01DX001 (ip), vehicle: Klucel (hydroxypropylcellulose) (HPC)) was 0 of 10 on day 33; the survivor count (T/C endpoint: median tumor weight change, dose: 50.0 mg/kg/injection, schedule: Q01DX001 (ip), vehicle: Klucel (hydroxypropylcellulose) (HPC)) is reported as 0 of 10 on day 33.
Take `CCNC(=O)[B-][N+](C)(C)C`: where the note is “T/C endpoint: median tumor weight change, dose: 800.0 mg/kg/injection, schedule: Q01DX001 (ip), vehicle: Klucel (hydroxypropylcellulose) (HPC)”, the survivor count is recorded as 0 of 10 on day 36.
Regarding `CC1c2ccccc2CC(CCN(C)C)c2ccccc21` (configuration not stated), the survivor count under setting [1] is listed as 3 of 10 on day 27; the survivor count under setting [2] was 0 of 10 on day 27; the survivor count under setting [3] is reported as 0 of 10 on day 27; the survivor count (T/C endpoint: median tumor weight change, dose: 500.0 mg/kg/injection, schedule: Q01DX001 (ip), vehicle: saline with Tween-80) is listed as 0 of 10 on day 27.
Take `Cc1ccc(C2NC(=O)c3ccccc3N2)s1` (configuration not stated): the T/C was 146 % of control (T/C endpoint: median tumor weight (est.), dose: 25.0 mg/kg/injection, schedule: Q07DX005 (ip), vehicle: Klucel (hydroxypropylcellulose) (HPC), evaluated on day 30) and 135 % of control [8 of 10 alive] (T/C endpoint: median tumor weight (est.), dose: 50.0 mg/kg/injection, schedule: Q07DX005 (ip), vehicle: Klucel (hydroxypropylcellulose) (HPC), evaluated on day 34).
As for `COc1cccc2c1C(=O)c1c(O)c3c(c(O)c1C2=O)C[C@@](O)(C(C)=O)C[C@@H]3OC1CC(N(C)C)C(O)C(C)O1` (some centres not stated), the T/C runs as follows: (T/C endpoint: median tumor weight change, dose: 5.0 mg/kg/injection, schedule: Q01DX001 (ip), vehicle: water, evaluated on day 29) 66 and 69 % of control; (T/C endpoint: median tumor weight change, dose: 5.0 mg/kg/injection, schedule: Q01DX001 (ip), vehicle: water, evaluated on day 30) 113 % of control; (T/C endpoint: median tumor weight change, dose: 5.0 mg/kg/injection, schedule: Q01DX001 (ip), vehicle: water, evaluated on day 33) 130 % of control; (T/C endpoint: median tumor weight change, dose: 5.0 mg/kg/injection, schedule: Q01DX001 (ip), vehicle: water, evaluated on day 34) 76 % of control; (T/C endpoint: median tumor weight change, dose: 10.0 mg/kg/injection, schedule: Q01DX001 (ip), vehicle: water, evaluated on day 29) 91 [9 of 10 alive on day 29] and 92 % of control; (T/C endpoint: median tumor weight change, dose: 10.0 mg/kg/injection, schedule: Q01DX001 (ip), vehicle: water, evaluated on day 30) 85 % of control. The T/C is, setting by setting: (T/C endpoint: median tumor weight change, dose: 10.0 mg/kg/injection, schedule: Q01DX001 (ip), vehicle: water, evaluated on day 33) 96 % of control; (T/C endpoint: median tumor weight change, dose: 10.0 mg/kg/injection, schedule: Q01DX001 (ip), vehicle: water, evaluated on day 34) 51 % of control; (T/C endpoint: median tumor weight change, dose: 20.0 mg/kg/injection, schedule: Q01DX001 (ip), vehicle: water, evaluated on day 29) 38 and 44 % of control; (T/C endpoint: median tumor weight change, dose: 20.0 mg/kg/injection, schedule: Q01DX001 (ip), vehicle: water, evaluated on day 30) 46 % of control; (T/C endpoint: median tumor weight change, dose: 20.0 mg/kg/injection, schedule: Q01DX001 (ip), vehicle: water, evaluated on day 33) 38 % of control; (T/C endpoint: median tumor weight change, dose: 20.0 mg/kg/injection, schedule: Q01DX001 (ip), vehicle: water, evaluated on day 34) 47 % of control. The T/C is -32 [8 of 10 alive on day 29] and -19 % of control [9 of 10 alive on day 29] (T/C endpoint: median tumor weight change, dose: 40.0 mg/kg/injection, schedule: Q01DX001 (ip), vehicle: water, evaluated on day 29); 10 % of control (T/C endpoint: median tumor weight change, dose: 40.0 mg/kg/injection, schedule: Q01DX001 (ip), vehicle: water, evaluated on day 30); -73 % of control (T/C endpoint: median tumor weight change, dose: 40.0 mg/kg/injection, schedule: Q01DX001 (ip), vehicle: water, evaluated on day 33); 1 % of control [7 of 10 alive on day 34] (T/C endpoint: median tumor weight change, dose: 40.0 mg/kg/injection, schedule: Q01DX001 (ip), vehicle: water, evaluated on day 34). For the same compound, under “T/C endpoint: median tumor weight change, dose: 80.0 mg/kg/injection, schedule: Q01DX001 (ip), vehicle: water”, the survivor count is 0 of 10 on day 29, 0 of 10 on day 33, 0 of 10 on day 34, 1 of 10 on day 30.
Regarding `O=C(CC(=O)C(F)(F)F)c1csc2ccccc12`, the survivor count runs as follows: (T/C endpoint: median tumor weight change, dose: 250.0 mg/kg/injection, schedule: Q01DX001 (ip), vehicle: Klucel (hydroxypropylcellulose) (HPC)) 0 of 10 on day 31; (T/C endpoint: median tumor weight change, dose: 500.0 mg/kg/injection, schedule: Q01DX001 (ip), vehicle: Klucel (hydroxypropylcellulose) (HPC)) 0 of 10 on day 31; (T/C endpoint: median tumor weight change, dose: 1000.0 mg/kg/injection, schedule: Q01DX001 (ip), vehicle: Klucel (hydroxypropylcellulose) (HPC)) 0 of 10 on day 31; (T/C endpoint: median tumor weight change, dose: 2000.0 mg/kg/injection, schedule: Q01DX001 (ip), vehicle: Klucel (hydroxypropylcellulose) (HPC)) 0 of 10 on day 31.
As for `C[N+](C)(C)c1ncnc2nc[nH]c12`, the T/C (T/C endpoint: median tumor weight (est.), dose: 50.0 mg/kg/injection, schedule: Q07DX005 (ip), vehicle: saline, evaluated on day 30) was 136 % of control.
As for `O=[n+]1c2ccccc2n([O-])c2ccccc21.[Cl][Ni][Cl]`, the survivor count is 3 of 10 on day 36 under setting [1], 0 of 10 on day 36 under setting [2] and 0 of 10 on day 36 under setting [3].
Take `CC[C@@H](C)[C@@H]1NC(=O)C(NC(=O)C(CC(C)C)N(C)C(=O)C2CCCN2C(=O)C(C)O)C(C)OC(=O)C(Cc2ccc(OC)cc2)N(C)C(=O)C2CCCN2C(=O)C(CC(C)C)NC(=O)C(C)C(=O)C(C(C)C)OC(=O)C[C@H]1O` (some centres not stated): the T/C by setting is: (T/C endpoint: median tumor weight change, dose: 80.0 micrograms/kg/injection, schedule: Q01DX001 (ip), vehicle: distilled water + alcohol, evaluated on day 31) 131 % of control; (T/C endpoint: median tumor weight change, dose: 150.0 micrograms/kg/injection, schedule: Q01DX001 (ip), vehicle: distilled water + alcohol, evaluated on day 33) 132 % of control; (T/C endpoint: median tumor weight change, dose: 160.0 micrograms/kg/injection, schedule: Q01DX001 (ip), vehicle: distilled water + alcohol, evaluated on day 31) 139 % of control.
In the case of `Cc1ccc(C(=O)[O][Hg][CH2]C2COC([CH2][Hg][O]C(=O)c3ccc(C)cc3)CO2)cc1` (configuration not stated), for the setting “T/C endpoint: median tumor weight (est.), dose: 200.0 mg/kg/injection, schedule: Q07DX005 (ip), vehicle: Klucel (hydroxypropylcellulose) (HPC)”, the survivor count is recorded as 1 of 10 on day 32.
